Measurements as given in doi:10.1101/2022.12.12.520143.

Tests used:
[1] = molecular target: PAS/LOV protein (PLP) fused to the tetracycline repressor (TetR) (Solanum lycopersicum (tomato)); experiment: two-hybrid
[2] = molecular target: PAS/LOV protein (PLP), BiFC fusion (Solanum lycopersicum (tomato)); experiment: split reporter

| Substance | binding [1] | binding [2] |
| --- | --- | --- |
| GDP-L-galactose phosphorylase 2 (GGP2) coupled to the VP16 transactivation domain (from UniProt A0A3Q7FCT3) (enzyme) | binds |  |
| GDP-L-galactose phosphorylase 1 (GGP1), BiFC fusion (from UniProt A0A3Q7H2M3) (enzyme) |  | binds |

No constants are given. Whether binding was seen depends on the method and setting. Binding calls can cover weak binding; strength is not graded here. For some assays here: In cells and extracts the contact can be indirect.
